From publication doi:10.1101/238709
These are yes or no findings as the source states them, for the method shown. In cells and extracts the contact can be indirect.

By UniProt entry, the sequences of proteins in these tests, tags left out. Where a name states a change or a piece, a line headed by the entry shows the natural chain unless it says otherwise.
UniProt Q05826: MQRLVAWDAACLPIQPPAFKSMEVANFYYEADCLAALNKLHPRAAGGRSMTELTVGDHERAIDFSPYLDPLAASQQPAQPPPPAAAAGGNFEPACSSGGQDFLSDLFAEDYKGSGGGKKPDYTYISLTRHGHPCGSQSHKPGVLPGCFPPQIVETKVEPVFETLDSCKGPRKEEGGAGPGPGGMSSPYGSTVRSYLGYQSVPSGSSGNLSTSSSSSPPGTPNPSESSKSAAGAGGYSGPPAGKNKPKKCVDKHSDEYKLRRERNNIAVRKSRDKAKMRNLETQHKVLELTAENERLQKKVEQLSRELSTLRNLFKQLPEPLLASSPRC
UniProt Q92830: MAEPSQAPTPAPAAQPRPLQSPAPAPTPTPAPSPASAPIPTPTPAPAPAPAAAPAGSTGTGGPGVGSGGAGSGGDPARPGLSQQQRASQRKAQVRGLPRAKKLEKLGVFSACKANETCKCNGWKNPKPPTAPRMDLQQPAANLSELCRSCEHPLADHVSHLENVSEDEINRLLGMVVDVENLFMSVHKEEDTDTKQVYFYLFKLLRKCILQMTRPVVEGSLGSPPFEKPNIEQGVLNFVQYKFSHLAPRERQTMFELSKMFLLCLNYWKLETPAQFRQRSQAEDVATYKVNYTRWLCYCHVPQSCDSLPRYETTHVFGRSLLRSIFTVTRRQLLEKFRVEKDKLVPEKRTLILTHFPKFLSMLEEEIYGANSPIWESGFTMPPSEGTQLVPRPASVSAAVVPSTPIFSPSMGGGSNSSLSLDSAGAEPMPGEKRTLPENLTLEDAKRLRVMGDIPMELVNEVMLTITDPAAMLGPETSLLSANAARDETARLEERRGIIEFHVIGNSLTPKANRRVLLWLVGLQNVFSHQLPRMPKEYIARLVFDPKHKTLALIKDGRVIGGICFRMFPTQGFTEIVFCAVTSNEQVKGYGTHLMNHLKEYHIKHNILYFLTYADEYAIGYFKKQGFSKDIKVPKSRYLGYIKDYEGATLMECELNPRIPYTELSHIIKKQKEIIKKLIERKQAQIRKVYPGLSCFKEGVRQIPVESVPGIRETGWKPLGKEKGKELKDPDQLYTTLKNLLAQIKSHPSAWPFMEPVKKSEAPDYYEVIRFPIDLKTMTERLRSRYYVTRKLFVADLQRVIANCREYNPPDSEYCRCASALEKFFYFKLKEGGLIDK

Molecular target: LAP*Δ4,7 (UniProt Q05826)
Test: co-IP

- binding: no binding
Substance: histone acetyltransferase GCN5 (from UniProt Q92830 1-837)
